Results on one substance are retold here after paper PMC6694222.

Protein sequences, listed by entry. Tags and fused reporters are not part of them. Residues count along the entry.
UniProt P02545, residues 1-646: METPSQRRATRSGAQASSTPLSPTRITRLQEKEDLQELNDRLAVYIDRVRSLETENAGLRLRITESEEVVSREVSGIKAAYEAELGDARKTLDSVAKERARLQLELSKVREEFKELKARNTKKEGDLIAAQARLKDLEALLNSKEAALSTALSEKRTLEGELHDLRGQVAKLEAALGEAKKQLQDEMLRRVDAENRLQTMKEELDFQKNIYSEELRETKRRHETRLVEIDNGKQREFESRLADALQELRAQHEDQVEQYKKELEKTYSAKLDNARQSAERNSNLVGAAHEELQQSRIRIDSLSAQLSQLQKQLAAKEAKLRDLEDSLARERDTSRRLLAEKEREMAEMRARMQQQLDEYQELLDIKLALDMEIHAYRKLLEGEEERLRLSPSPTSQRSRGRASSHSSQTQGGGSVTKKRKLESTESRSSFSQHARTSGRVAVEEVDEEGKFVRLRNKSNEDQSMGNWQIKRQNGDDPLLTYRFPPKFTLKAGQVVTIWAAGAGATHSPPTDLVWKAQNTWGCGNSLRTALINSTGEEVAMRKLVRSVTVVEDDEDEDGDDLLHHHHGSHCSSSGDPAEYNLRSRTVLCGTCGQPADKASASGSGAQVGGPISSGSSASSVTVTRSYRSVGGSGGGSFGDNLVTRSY

These are yes or no findings as the source states them, for the method shown. Binding seen in cells or lysates may run through a third protein. A yes stands for co-enrichment or nearness to the bait. Other partners may have been found.

This assay has as its target T1, mammalian STE20-like protein kinase 2 (MST2) (human (endogenous in HeLa)) (UniProt Q13188).
T1 sequence: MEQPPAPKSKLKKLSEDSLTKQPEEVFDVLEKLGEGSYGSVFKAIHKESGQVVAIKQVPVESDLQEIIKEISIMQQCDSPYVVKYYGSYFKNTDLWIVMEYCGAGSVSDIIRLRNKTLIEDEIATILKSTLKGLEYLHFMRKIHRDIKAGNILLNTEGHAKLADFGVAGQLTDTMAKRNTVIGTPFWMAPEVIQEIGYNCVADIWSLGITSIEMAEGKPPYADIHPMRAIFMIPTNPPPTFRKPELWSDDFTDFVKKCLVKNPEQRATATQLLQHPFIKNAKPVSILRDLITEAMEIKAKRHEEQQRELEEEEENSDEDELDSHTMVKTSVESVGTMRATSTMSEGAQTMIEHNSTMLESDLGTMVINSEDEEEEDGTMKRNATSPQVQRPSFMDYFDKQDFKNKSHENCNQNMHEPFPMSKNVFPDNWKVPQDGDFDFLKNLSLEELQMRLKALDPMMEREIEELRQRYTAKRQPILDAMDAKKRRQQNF
Nature of the assay: affinity purification with mass spectrometry; MST2 antibody (ab52641) or rIgG with protein A Dynabeads, 10 mg HeLa lysate (1% NP-40, 150 mM NaCl, 20 mM HEPES, 0.5 mM EDTA), 3 h at 4 C, low pH glycine elution, LC-MS/MS.

In the case of Lamin A/C (from UniProt P02545 1-646), the binding entry is “binds”.
